These results are taken from publication PMC10514085.

The chains behind the UniProt entries cited, without tags or fusion partners.
UniProt O96019: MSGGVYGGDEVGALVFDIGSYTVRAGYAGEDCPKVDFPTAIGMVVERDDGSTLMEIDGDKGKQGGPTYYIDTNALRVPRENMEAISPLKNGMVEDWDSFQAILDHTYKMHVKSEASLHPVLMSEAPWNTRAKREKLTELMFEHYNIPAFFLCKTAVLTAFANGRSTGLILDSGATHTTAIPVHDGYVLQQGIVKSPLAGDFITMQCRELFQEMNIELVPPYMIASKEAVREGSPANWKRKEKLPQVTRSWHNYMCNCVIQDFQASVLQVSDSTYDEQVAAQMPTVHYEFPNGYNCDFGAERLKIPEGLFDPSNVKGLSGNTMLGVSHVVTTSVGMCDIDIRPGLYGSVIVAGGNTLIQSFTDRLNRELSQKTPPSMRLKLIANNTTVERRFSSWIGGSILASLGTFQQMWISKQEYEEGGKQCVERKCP
UniProt O75376: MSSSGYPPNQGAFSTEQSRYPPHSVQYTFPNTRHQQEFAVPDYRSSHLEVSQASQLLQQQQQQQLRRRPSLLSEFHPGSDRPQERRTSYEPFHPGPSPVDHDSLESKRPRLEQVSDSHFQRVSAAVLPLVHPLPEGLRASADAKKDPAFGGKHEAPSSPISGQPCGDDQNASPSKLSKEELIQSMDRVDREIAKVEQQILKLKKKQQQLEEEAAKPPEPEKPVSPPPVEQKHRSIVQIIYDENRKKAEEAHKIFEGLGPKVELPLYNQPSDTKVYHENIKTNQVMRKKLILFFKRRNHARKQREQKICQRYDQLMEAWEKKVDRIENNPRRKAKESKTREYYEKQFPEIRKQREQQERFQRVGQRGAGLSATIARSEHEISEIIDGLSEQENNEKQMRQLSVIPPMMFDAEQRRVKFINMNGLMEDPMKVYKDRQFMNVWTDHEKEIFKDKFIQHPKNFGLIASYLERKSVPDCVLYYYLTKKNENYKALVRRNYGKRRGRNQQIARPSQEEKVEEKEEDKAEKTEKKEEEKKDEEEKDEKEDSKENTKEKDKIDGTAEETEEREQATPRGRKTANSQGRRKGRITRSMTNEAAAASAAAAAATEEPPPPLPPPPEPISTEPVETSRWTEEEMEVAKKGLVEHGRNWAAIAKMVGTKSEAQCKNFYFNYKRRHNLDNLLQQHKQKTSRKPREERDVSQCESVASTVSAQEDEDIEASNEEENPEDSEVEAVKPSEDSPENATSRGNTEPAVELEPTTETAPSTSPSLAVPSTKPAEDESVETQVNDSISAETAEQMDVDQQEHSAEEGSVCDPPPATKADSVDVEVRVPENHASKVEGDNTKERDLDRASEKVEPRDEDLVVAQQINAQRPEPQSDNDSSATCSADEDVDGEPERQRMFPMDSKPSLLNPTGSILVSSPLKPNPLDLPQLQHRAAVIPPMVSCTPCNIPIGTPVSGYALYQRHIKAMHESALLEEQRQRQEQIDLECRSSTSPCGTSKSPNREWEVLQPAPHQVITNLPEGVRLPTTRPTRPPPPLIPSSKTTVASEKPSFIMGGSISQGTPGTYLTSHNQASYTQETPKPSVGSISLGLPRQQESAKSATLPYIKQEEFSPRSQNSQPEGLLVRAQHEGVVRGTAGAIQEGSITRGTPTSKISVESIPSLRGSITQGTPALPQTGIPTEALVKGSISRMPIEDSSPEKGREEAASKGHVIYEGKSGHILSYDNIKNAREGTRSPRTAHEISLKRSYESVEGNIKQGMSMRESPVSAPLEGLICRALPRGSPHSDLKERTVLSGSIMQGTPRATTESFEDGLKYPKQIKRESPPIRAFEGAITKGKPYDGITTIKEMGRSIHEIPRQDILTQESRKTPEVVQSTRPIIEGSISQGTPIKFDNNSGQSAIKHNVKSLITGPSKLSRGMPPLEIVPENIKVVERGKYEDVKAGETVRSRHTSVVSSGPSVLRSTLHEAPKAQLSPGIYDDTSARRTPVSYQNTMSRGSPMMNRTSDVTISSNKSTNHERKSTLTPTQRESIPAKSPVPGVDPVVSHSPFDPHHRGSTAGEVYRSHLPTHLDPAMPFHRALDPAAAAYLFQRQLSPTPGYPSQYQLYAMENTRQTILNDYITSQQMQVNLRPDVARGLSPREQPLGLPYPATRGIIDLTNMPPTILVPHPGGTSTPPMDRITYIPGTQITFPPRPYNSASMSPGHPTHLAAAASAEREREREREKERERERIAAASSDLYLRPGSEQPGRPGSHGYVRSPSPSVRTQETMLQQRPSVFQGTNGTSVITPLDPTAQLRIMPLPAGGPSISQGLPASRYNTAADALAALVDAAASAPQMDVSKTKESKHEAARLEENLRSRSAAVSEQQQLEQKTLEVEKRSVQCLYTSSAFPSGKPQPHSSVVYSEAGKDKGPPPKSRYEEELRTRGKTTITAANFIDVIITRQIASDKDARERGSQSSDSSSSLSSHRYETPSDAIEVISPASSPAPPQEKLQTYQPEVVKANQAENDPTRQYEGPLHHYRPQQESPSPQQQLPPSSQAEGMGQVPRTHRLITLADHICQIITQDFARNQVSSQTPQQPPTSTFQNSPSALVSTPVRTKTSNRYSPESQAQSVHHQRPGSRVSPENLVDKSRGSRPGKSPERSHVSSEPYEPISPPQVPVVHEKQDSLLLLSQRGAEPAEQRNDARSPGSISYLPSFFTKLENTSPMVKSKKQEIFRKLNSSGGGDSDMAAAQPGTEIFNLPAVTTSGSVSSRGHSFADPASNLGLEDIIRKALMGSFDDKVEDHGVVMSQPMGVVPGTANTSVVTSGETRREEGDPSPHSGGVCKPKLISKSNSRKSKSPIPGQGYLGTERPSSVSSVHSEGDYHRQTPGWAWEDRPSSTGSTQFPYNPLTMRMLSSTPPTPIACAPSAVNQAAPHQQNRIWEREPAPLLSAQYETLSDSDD
UniProt P51532: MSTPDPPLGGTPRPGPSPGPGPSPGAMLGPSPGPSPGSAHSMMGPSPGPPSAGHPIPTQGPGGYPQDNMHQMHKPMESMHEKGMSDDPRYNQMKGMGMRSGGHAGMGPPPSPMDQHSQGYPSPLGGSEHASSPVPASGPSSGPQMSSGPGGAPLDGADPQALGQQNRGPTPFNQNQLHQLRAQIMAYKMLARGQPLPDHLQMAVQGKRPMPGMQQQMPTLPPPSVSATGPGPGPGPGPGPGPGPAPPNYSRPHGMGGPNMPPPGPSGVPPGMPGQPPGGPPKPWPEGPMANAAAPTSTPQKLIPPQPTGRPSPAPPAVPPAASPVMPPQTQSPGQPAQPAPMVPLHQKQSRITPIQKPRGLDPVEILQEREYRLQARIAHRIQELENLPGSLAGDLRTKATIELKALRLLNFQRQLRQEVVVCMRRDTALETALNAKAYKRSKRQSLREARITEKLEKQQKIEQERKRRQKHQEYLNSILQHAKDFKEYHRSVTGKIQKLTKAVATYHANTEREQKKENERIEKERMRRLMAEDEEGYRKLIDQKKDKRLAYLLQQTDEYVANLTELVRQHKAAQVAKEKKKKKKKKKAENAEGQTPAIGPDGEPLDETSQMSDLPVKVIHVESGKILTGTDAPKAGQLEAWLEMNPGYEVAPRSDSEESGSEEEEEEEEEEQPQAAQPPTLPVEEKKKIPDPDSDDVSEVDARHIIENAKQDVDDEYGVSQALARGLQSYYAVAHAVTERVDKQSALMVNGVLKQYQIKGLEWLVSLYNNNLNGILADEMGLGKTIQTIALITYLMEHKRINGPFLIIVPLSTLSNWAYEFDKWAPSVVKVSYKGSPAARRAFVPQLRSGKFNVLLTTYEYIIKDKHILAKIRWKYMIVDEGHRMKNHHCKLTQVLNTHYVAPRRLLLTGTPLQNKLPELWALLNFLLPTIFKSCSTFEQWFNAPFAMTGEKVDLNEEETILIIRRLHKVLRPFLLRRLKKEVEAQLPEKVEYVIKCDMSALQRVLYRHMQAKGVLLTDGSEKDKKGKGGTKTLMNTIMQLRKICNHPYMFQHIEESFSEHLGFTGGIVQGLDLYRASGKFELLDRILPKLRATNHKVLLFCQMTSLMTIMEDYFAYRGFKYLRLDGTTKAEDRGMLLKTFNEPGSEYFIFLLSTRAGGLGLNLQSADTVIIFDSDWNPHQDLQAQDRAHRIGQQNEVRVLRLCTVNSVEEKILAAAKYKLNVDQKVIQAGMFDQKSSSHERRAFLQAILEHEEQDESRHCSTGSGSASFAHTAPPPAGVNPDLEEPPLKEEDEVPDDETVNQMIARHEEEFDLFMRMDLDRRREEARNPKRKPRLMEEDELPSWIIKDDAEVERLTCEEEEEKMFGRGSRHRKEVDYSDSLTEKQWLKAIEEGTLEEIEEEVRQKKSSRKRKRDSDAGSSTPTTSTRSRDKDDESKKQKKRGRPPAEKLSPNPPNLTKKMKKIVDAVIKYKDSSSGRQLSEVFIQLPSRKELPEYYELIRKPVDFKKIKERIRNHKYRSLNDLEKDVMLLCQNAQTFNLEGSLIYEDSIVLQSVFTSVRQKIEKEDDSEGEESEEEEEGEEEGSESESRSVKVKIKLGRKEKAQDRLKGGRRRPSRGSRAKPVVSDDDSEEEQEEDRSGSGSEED
UniProt Q12824: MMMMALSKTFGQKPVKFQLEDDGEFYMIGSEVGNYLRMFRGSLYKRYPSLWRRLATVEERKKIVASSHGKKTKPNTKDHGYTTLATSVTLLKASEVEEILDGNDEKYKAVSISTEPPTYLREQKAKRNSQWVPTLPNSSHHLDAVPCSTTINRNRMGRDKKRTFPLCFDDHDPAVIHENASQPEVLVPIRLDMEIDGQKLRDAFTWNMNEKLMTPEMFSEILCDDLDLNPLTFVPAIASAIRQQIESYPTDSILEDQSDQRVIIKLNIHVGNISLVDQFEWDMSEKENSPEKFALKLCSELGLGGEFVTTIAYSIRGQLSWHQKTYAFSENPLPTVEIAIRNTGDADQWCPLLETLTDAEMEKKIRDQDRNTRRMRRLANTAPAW
UniProt Q92922: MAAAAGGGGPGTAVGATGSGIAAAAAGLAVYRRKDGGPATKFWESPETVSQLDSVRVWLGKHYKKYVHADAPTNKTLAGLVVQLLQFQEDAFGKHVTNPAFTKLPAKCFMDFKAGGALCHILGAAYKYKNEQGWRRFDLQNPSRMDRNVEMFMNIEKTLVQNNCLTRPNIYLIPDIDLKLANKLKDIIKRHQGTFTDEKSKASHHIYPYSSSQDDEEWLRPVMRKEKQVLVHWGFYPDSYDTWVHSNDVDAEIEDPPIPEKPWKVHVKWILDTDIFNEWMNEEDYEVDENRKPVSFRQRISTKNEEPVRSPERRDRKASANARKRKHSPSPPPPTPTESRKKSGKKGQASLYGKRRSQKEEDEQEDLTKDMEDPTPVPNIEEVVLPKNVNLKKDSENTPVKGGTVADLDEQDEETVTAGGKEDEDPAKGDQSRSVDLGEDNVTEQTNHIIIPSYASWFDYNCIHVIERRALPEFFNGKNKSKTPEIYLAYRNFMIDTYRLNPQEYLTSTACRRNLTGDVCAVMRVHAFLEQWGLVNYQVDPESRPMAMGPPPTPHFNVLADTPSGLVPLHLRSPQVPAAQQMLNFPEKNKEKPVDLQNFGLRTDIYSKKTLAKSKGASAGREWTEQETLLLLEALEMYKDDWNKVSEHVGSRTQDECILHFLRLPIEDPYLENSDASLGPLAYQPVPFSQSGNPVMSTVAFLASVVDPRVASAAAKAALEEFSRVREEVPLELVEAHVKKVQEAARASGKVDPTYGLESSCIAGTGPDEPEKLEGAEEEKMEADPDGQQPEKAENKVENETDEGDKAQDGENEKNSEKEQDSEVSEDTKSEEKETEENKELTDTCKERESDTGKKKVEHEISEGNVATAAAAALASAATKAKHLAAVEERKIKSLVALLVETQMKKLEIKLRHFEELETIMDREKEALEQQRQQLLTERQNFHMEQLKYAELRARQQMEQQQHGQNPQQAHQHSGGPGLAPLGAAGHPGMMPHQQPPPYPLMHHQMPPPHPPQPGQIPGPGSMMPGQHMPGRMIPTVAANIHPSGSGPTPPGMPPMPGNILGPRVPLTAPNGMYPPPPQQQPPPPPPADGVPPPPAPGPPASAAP
UniProt Q92925: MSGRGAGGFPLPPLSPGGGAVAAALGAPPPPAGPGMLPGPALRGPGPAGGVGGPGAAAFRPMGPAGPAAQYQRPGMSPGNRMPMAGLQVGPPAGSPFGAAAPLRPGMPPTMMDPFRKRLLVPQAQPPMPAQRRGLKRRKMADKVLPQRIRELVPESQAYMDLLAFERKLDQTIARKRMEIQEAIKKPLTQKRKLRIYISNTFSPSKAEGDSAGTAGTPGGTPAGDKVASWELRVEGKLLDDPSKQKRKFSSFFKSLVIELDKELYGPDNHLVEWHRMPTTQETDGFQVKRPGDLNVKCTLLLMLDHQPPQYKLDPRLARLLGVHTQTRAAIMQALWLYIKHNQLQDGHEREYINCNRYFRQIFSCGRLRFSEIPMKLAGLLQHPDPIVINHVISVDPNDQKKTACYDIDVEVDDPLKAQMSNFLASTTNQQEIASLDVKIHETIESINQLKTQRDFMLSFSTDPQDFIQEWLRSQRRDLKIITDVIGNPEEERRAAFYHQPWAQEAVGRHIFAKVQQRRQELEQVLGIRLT

No constants are given. Whether binding was seen depends on the method and setting. Binding seen in cells or lysates may run through a third protein. Here binding means that the protein was enriched with, or labelled near, the bait; the list need not be complete.

For this test, the target named is FLAG-BirA*-ERG 1-479 WT (human) (UniProt P11308). Description: proximity labelling; BioID: FLAG-BirA*-ERG bait induced with doxycycline in stable HEK293 GnT-/- cells, 50 uM biotin for 24 h; streptavidin-Sepharose capture from modified RIPA lysate, LC-MS/MS; SAINT score >0.8, FDR <0.05.
For the substance ACTL6A (from UniProt O96019 1-429), the binding entry is on record as “binds”. Take GPS2 (from UniProt Q13227 1-327): the binding result was “binds”. As for NCoR1 (from UniProt O75376 1-2440), the entry is “binds”.

On to SMARCA4 (from UniProt P51532 1-1647), for which the binding entry is on record as “binds”. As for SMARCB1 (from UniProt Q12824 1-385), the entry is “binds”; as for SMARCC1 (from UniProt Q92922 1-1105), “binds”; as for SMARCC2 (from UniProt Q8TAQ2 1-1214), “binds”. The result for SMARCD1 (from UniProt Q96GM5 1-515) reads “binds”; that for SMARCD2 (from UniProt Q92925 1-531), “binds”. SMARCE1 (from UniProt Q969G3 1-411): the binding result was “binds”.
